No constants are given. Whether binding was seen depends on the method and setting. Binding seen in cells or lysates may run through a third protein. Here binding means that the protein was enriched with, or labelled near, the bait; the list need not be complete.
B1: RASA2 (protein, UniProt Q15283 1-850)
chain: MAAAAPAAAAASSEAPAASATAEPEAGDQDSREVRVLQSLRGKICEAKNLLPYLGPHKMRDCFCTINLDQEEVYRTQVVEKSLSPFFSEEFYFEIPRTFQYLSFYVYDKNVLQRDLRIGKVAIKKEDLCNHSGKETWFSLQPVDSNSEVQGKVHLELKLNELITENGTVCQQLVVHIKACHGLPLINGQSCDPYATVSLVGPSRNDQKKTKVKKKTSNPQFNEIFYFEVTRSSSYTRKSQFQVEEEDIEKLEIRIDLWNNGNLVQDVFLGEIKVPVNVLRTDSSHQAWYLLQPRDNGNKSSKTDDLGSLRLNICYTEDYVLPSEYYGPLKTLLLKSPDVQPISASAAYILSEICRDKNDAVLPLVRLLLHHDKLVPFATAVAELDLKDTQDANTIFRGNSLATRCLDEMMKIVGGHYLKVTLKPILDEICDSSKSCEIDPIKLKEGDNVENNKENLRYYVDKLFNTIVKSSMSCPTVMCDIFYSLRQMATQRFPNDPHVQYSAVSSFVFLRFFAVAVVSPHTFHLRPHHPDAQTIRTLTLISKTIQTLGSWGSLSKSKSSFKETFMCEFFKMFQEEGYIIAVKKFLDEISSTETKESSGTSEPVHLKEGEMYKRAQGRTRIGKKNFKKRWFCLTSRELTYHKQPGSKDAIYTIPVKNILAVEKLEESSFNKKNMFQVIHTEKPLYVQANNCVEANEWIDVLCRVSRCNQNRLSFYHPSVYLNGNWLCCQETGENTLGCKPCTAGVPADIQIDIDEDRETERIYSLFTLSLLKLQKMEEACGTIAVYQGPQKEPDDYSNFVIEDSVTTFKTIQQIKSIIEKLDEPHEKYRKKRSSSAKYGSKENPIVGKAS
B2: ubiquitin protein ligase E3B (UBE3B) (protein, UniProt Q7Z3V4 1-1068)
chain: MFTLSQTSRAWFIDRARQAREERLVQKERERAAVVIQAHVRSFLCRSRLQRDIRREIDDFFKADDPESTKRSALCIFKIARKLLFLFRIKEDNERFEKLCRSILSSMDAENEPKVWYVSLACSKDLTLLWIQQIKNILWYCCDFLKQLKPEILQDSRLITLYLTMLVTFTDTSTWKILRGKGESLRPAMNHICANIMGHLNQHGFYSVLQILLTRGLARPRPCLSKGTLTAAFSLALRPVIAAQFSDNLIRPFLIHIMSVPALVTHLSTVTPERLTVLESHDMLRKFIIFLRDQDRCRDVCESLEGCHTLCLMGNLLHLGSLSPRVLEEETDGFVSLLTQTLCYCRKYVSQKKSNLTHWHPVLGWFSQSVDYGLNESMHLITKQLQFLWGVPLIRIFFCDILSKKLLESQEPAHAQPASPQNVLPVKSLLKRAFQKSASVRNILRPVGGKRVDSAEVQKVCNICVLYQTSLTTLTQIRLQILTGLTYLDDLLPKLWAFICELGPHGGLKLFLECLNNDTEESKQLLAMLMLFCDCSRHLITILDDIEVYEEQISFKLEELVTISSFLNSFVFKMIWDGIVENAKGETLELFQSVHGWLMVLYERDCRRRFTPEDHWLRKDLKPSVLFQELDRDRKRAQLILQYIPHVIPHKNRVLLFRTMVTKEKEKLGLVETSSASPHVTHITIRRSRMLEDGYEQLRQLSQHAMKGVIRVKFVNDLGVDEAGIDQDGVFKEFLEEIIKRVFDPALNLFKTTSGDERLYPSPTSYIHENYLQLFEFVGKMLGKAVYEGIVVDVPFASFFLSQLLGHHHSVFYSSVDELPSLDSEFYKNLTSIKRYDGDITDLGLTLSYDEDVMGQLVCHELIPGGKTIPVTNENKISYIHLMAHFRMHTQIKNQTAALISGFRSIIKPEWIRMFSTPELQRLISGDNAEIDLEDLKKHTVYYGGFHGSHRVIIWLWDILASDFTPDERAMFLKFVTSCSRPPLLGFAYLKPPFSIRCVEVSDDQDTGDTLGSVLRGFFTIRKREPGGRLPTSSTCFNLLKLPNYSKKSVLREKLRYAISMNTGFELS
B3: R-spondin3 (Rspo3), from human liver tissue (protein, UniProt Q9BXY4 22-272)
chain: QNASRGRRQRRMHPNVSQGCQGGCATCSDYNGCLSCKPRLFFALERIGMKQIGVCLSSCPSGYYGTRYPDINKCTKCKADCDTCFNKNFCTKCKSGFYLHLGKCLDNCPEGLEANNHTMECVSIVHCEVSEWNPWSPCTKKGKTCGFKRGTETRVREIIQHPSAKGNLCPPTNETRKCTVQRKKCQKGERGKKGRERKRKKPNKGESKEAIPDSKSLESSKEIPEQRENKQQQKKRKVQDKQKSVSVSTVH
B4: ubiquitin specific peptidase 42 (USP42) (protein, UniProt Q9H9J4 1-1324)
chain: MTIVDKASESSDPSAYQNQPGSSEAVSPGDMDAGSASWGAVSSLNDVSNHTLSLGPVPGAVVYSSSSVPDKSKPSPQKDQALGDGIAPPQKVLFPSEKICLKWQQTHRVGAGLQNLGNTCFANAALQCLTYTPPLANYMLSHEHSKTCHAEGFCMMCTMQAHITQALSNPGDVIKPMFVINEMRRIARHFRFGNQEDAHEFLQYTVDAMQKACLNGSNKLDRHTQATTLVCQIFGGYLRSRVKCLNCKGVSDTFDPYLDITLEIKAAQSVNKALEQFVKPEQLDGENSYKCSKCKKMVPASKRFTIHRSSNVLTLSLKRFANFTGGKIAKDVKYPEYLDIRPYMSQPNGEPIVYVLYAVLVHTGFNCHAGHYFCYIKASNGLWYQMNDSIVSTSDIRSVLSQQAYVLFYIRSHDVKNGGELTHPTHSPGQSSPRPVISQRVVTNKQAAPGFIGPQLPSHMIKNPPHLNGTGPLKDTPSSSMSSPNGNSSVNRASPVNASASVQNWSVNRSSVIPEHPKKQKITISIHNKLPVRQCQSQPNLHSNSLENPTKPVPSSTITNSAVQSTSNASTMSVSSKVTKPIPRSESCSQPVMNGKSKLNSSVLVPYGAESSEDSDEESKGLGKENGIGTIVSSHSPGQDAEDEEATPHELQEPMTLNGANSADSDSDPKENGLAPDGASCQGQPALHSENPFAKANGLPGKLMPAPLLSLPEDKILETFRLSNKLKGSTDEMSAPGAERGPPEDRDAEPQPGSPAAESLEEPDAAAGLSSTKKAPPPRDPGTPATKEGAWEAMAVAPEEPPPSAGEDIVGDTAPPDLCDPGSLTGDASPLSQDAKGMIAEGPRDSALAEAPEGLSPAPPARSEEPCEQPLLVHPSGDHARDAQDPSQSLGAPEAAERPPAPVLDMAPAGHPEGDAEPSPGERVEDAAAPKAPGPSPAKEKIGSLRKVDRGHYRSRRERSSSGEPARESRSKTEGHRHRRRRTCPRERDRQDRHAPEHHPGHGDRLSPGERRSLGRCSHHHSRHRSGVELDWVRHHYTEGERGWGREKFYPDRPRWDRCRYYHDRYALYAARDWKPFHGGREHERAGLHERPHKDHNRGRRGCEPARERERHRPSSPRAGAPHALAPHPDRFSHDRTALVAGDNCNLSDRFHEHENGKSRKRRHDSVENSDSHVEKKARRSEQKDPLEEPKAKKHKKSKKKKKSKDKHRDRDSRHQQDSDLSAACSDADLHRHKKKKKKKKRHSRKSEDFVKDSELHLPRVTSLETVAQFRRAQGGFPLSGGPPLEGVGPFREKTKHLRMESRDDRCRLFEYGQGKRRYLELGR
B5: RASA4 (protein, UniProt O43374 1-803)
chain: MAKRSSLYIRIVEGKNLPAKDITGSSDPYCIVKVDNEPIIRTATVWKTLCPFWGEEYQVHLPPTFHAVAFYVMDEDALSRDDVIGKVCLTRDTIASHPKGFSGWAHLTEVDPDEEVQGEIHLRLEVWPGARACRLRCSVLEARDLAPKDRNGTSDPFVRVRYKGRTRETSIVKKSCYPRWNETFEFELQEGAMEALCVEAWDWDLVSRNDFLGKVVIDVQRLRVVQQEEGWFRLQPDQSKSRRHDEGNLGSLQLEVRLRDETVLPSSYYQPLVHLLCHEVKLGMQGPGQLIPLIEETTSTECRQDVATNLLKLFLGQGLAKDFLDLLFQLELSRTSETNTLFRSNSLASKSMESFLKVAGMQYLHGVLGPIINKVFEEKKYVELDPSKVEVKDVGCSGLHRPQTEAEVLEQSAQTLRAHLGALLSALSRSVRACPAVVRATFRQLFRRVRERFPGAQHENVPFIAVTSFLCLRFFSPAIMSPKLFHLRERHADARTSRTLLLLAKAVQNVGNMDTPASRAKEAWMEPLQPTVRQGVAQLKDFITKLVDIEEKDELDLQRTLSLQAPPVKEGPLFIHRTKGKGPLMSSSFKKLYFSLTTEALSFAKTPSSKKSALIKLANIRAAEKVEEKSFGGSHVMQVIYTDDAGRPQTAYLQCKCVNELNQWLSALRKVSINNTGLLGSYHPGVFRGDKWSCCHQKEKTGQGCDKTRSRVTLQEWNDPLDHDLEAQLIYRHLLGVEAMLWERHRELSGGAEAGTVPTSPGKVPEDSLARLLRVLQDLREAHSSSPAGSPPSEPNCLLELQT
B6: ubiquitin specific peptidase 29 (USP29) (protein, UniProt Q9HBJ7 1-922)
chain: MISLKVCGFIQIWSQKTGMTKLKEALIETVQRQKEIKLVVTFKSGKFIRIFQLSNNIRSVVLRHCKKRQSHLRLTLKNNVFLFIDKLSYRDAKQLNMFLDIIHQNKSQQPMKSDDDWSVFESRNMLKEIDKTSFYSICNKPSYQKMPLFMSKSPTHVKKGILENQGGKGQNTLSSDVQTNEDILKEDNPVPNKKYKTDSLKYIQSNRKNPSSLEDLEKDRDLKLGPSFNTNCNGNPNLDETVLATQTLNAKNGLTSPLEPEHSQGDPRCNKAQVPLDSHSQQLQQGFPNLGNTCYMNAVLQSLFAIPSFADDLLTQGVPWEYIPFEALIMTLTQLLALKDFCSTKIKRELLGNVKKVISAVAEIFSGNMQNDAHEFLGQCLDQLKEDMEKLNATLNTGKECGDENSSPQMHVGSAATKVFVCPVVANFEFELQLSLICKACGHAVLKVEPNNYLSINLHQETKPLPLSIQNSLDLFFKEEELEYNCQMCKQKSCVARHTFSRLSRVLIIHLKRYSFNNAWLLVKNNEQVYIPKSLSLSSYCNESTKPPLPLSSSAPVGKCEVLEVSQEMISEINSPLTPSMKLTSESSDSLVLPVEPDKNADLQRFQRDCGDASQEQHQRDLENGSALESELVHFRDRAIGEKELPVADSLMDQGDISLPVMYEDGGKLISSPDTRLVEVHLQEVPQHPELQKYEKTNTFVEFNFDSVTESTNGFYDCKENRIPEGSQGMAEQLQQCIEESIIDEFLQQAPPPGVRKLDAQEHTEETLNQSTELRLQKADLNHLGALGSDNPGNKNILDAENTRGEAKELTRNVKMGDPLQAYRLISVVSHIGSSPNSGHYISDVYDFQKQAWFTYNDLCVSEISETKMQEARLHSGYIFFYMHNGIFEELLRKAENSRLPSTQAGVIPQGEYEGDSLYRPA

Target: GST-fused HRAS protein (GST-HRAS) (UniProt P01112)
Experiment: affinity purification with mass spectrometry; purified GST-HRAS (GST as control) incubated overnight at 4 °C with pre-cleared human HCC tumor or paired normal tissue lysates; glutathione agarose beads 2 h at 4 °C; washed three times with RIPA buffer; SDS-PAGE, 22 gel slices, LC-MS/MS; only the target purified

binding	Binder
binds	B1
binds	B2
binds	B3
binds	B4
binds	B5
binds	B6
